Experimental data published in publication PMC12670408, “Backbone Alterations in Cyclic Peptides Influence Both Membrane Permeability and Biological Activity” (Journal of Medicinal Chemistry, 2025).

Experiments:
[1] = CHI-IAM chromatography (immobilized artificial membrane); format: physicochemical; conditions: IAM.PC.DD2 column, ammonium acetate buffer pH 7.4
Text: With all peptides in hand we first set out to estimate their passive membrane permeability using the immobilized artificial membrane (IAM) chromatography technique. , An IAM column is packed with a reverse phase like material modified with phospholipids to mimic a cellular membrane. After analysis of a compound its retention time is compared to a set of calibration compounds to yield a CHI-IAM value. A higher value indicates a stronger membrane interaction, which can be correlated to passive membrane permeability.
CHI-IAM chromatography was carried out on an Agilent 1200 Series LC (Agilent Technologies, USA) equipped with a 4.6 mm × 100 mm to 150 mm IAM.PC.DD2 column from Regis Technologies, Inc., eluting at 1.5 mL/min, eluting over a gradient of 0% – 85% MeCN with a 50 mM ammonium acetate buffer adjusted to pH 7.4 over 4.75 min.

[2] = parameters: method as in Fairlie group; conditions: ref Fairlie group; cited from earlier work

- CHI-IAM [1]: 45.23 ± 0.18
SMILES: CC[C@H](C)[C@@H]1NC(=O)[C@@H]2CCCN2C(=O)[C@H](Cc2ccccc2)NC(=O)[C@H](C(C)(C)C)NC(=O)c2csc(n2)[C@H]([C@@H](C)CC)NC(=O)[C@@H]2CCCN2C1=O [SA-A2, Danamide F]
- bioavailability (F) [2]: 51%
